According to patent US20230134083A1:
These are yes or no findings as the source states them, for the method shown. Some binding calls cover weakened binding; strength is not graded here. For some assays here: Where a sequence is shown, tags or fusion partners need not be part of it.

Protein sequences, listed by entry. Tags and fused reporters are not part of them. Residues count along the entry.
UniProt P27037, residues 21-135: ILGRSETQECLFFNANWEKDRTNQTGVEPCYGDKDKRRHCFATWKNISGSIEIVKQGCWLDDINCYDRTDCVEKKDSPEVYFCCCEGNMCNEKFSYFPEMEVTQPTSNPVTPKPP

Columns and labels:
activin B [1] = molecular target: T1, activin B (UniProt P09529); test: Biacore (SPR) ligand binding data, FIG. 6
T1 sequence (looked up): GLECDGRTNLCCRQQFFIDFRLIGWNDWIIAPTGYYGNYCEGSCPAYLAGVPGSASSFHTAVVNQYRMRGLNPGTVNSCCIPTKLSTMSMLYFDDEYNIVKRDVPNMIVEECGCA

GDF11 [2] = molecular target: T2, GDF11 (UniProt O95390); test: Biacore (SPR) ligand binding data, FIG. 6
T2 sequence (looked up): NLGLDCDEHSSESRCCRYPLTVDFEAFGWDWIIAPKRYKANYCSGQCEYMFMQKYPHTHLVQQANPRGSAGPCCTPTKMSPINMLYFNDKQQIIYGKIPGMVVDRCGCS

BMP10 [3] = molecular target: T3, BMP10 (UniProt O95393); test: Biacore (SPR); receptor Fc fusion captured by anti-Fc antibody, ligand injected
T3 sequence (looked up): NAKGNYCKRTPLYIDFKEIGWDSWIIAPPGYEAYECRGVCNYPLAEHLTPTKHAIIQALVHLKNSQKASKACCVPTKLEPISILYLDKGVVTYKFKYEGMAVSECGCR

GDF8 [4] = molecular target: T4, GDF8 (UniProt O14793); test: as above
T4 sequence (looked up): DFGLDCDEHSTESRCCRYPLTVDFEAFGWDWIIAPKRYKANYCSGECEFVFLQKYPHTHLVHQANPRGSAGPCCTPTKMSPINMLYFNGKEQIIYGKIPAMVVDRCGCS

activin B [5] = molecular target: T1, activin B; test: as above
GDF11 [6] = molecular target: T2, GDF11; test: as above
BMP10 [7] = molecular target: T3, BMP10; test: Biacore (SPR) ligand binding data, FIG. 5
GDF8 [8] = molecular target: T4, GDF8; test: Biacore (SPR) ligand binding data, FIG. 5
activin B [9] = molecular target: T1, activin B; test: Biacore (SPR) ligand binding data, FIG. 5
GDF11 [10] = molecular target: T2, GDF11; test: Biacore (SPR) ligand binding data, FIG. 5
BMP10 [11] = molecular target: T3, BMP10; test: Biacore (SPR); receptor Fc fusion captured by anti-Fc antibody, ligand injected; remark: listed apart in the source
GDF8 [12] = molecular target: T4, GDF8; test: as above; remark: listed apart in the source
activin B [13] = molecular target: T1, activin B; test: as above; remark: listed apart in the source
GDF11 [14] = molecular target: T2, GDF11; test: as above; remark: listed apart in the source

Measured: binding

ActRIIA homodimer Fc fusion (from UniProt P27037 21-135)
binds: activin B [1] | GDF11 [2] | BMP10 [3] | GDF8 [4] | activin B [5] | GDF11 [6]

B1: ActRIIB homodimer Fc fusion (Fc fusion, UniProt Q13705 20-134, looked up, not shown: a dimerising Fc or GST)
chain: GRGEAETRECIYYNANWELERTNQSGLERCEGEQDKRLHCYASWRNSSGTIELVKKGCWLDDFNCYDRQECVATEENPQVYFCCCEGNFCNERFTHLPEAGGPEVTYEPPPTAPT
binds: BMP10 [7] | GDF8 [8] | activin B [9] | GDF11 [10] | BMP10 [11] | GDF8 [12] | activin B [13] | GDF11 [14]
